According to PubChem BioAssay AID540253 (National Center for Advancing Translational Sciences (NCATS), 2011):
The hits were mostly taken out for another list; the other results follow. Inconclusive results are not listed. The source made the active and inactive calls. Calls follow the shape of the full dose curve.

Sequences of proteins named here, by UniProt entry; tags and fusion partners are left off.
UniProt O95149, whole entry, looked up: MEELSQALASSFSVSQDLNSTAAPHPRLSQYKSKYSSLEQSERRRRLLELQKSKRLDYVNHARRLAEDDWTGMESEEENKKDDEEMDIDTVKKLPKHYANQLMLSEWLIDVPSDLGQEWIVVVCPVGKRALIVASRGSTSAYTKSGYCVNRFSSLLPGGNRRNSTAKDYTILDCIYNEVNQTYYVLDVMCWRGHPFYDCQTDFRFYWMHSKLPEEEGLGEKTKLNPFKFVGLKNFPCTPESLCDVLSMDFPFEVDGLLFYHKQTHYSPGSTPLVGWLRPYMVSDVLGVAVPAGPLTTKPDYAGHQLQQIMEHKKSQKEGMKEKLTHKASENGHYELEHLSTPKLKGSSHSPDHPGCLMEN
UniProt Q14974, whole entry, looked up: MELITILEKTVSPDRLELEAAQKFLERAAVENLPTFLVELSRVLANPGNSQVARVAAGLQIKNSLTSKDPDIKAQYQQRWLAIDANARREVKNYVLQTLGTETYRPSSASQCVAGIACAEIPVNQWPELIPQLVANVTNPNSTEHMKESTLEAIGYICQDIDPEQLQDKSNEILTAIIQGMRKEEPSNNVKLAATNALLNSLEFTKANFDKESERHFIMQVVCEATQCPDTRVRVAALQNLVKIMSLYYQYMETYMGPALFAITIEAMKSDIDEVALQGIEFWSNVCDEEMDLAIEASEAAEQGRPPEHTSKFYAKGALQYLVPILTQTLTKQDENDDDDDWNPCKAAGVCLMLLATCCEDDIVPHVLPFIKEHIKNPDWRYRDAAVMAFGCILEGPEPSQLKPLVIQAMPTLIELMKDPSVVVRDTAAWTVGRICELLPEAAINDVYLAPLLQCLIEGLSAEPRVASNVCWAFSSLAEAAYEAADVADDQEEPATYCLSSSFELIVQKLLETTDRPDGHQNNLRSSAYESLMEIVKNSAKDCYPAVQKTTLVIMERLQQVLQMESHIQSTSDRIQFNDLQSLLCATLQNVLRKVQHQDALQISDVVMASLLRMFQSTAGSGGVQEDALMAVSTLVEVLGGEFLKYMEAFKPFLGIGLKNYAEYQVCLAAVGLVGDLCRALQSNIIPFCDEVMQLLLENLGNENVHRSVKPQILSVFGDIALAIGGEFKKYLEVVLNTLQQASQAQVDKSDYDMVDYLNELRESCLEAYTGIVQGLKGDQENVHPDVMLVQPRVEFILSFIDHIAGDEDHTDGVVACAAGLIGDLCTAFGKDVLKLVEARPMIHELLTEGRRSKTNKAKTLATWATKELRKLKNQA

Each compound was assayed against Snurportin-1 (Homo sapiens) + GTP-binding nuclear protein Ran (Homo sapiens) + Importin subunit beta-1 (Homo sapiens) (UniProt O95149+P62826+Q14974) (assay: qHTS Assay for Inhibitors of RanGTP induced Rango (Ran-regulated importin-beta cargo) - Importin beta complex dissociation). Conditions: Biochemical FRET Rango-importin beta; at 46.1 µM (top of the series).
Source text: NIH Molecular Libraries Probe Production Centers Network [MLPCN] NIH Chemical Genomics Center [NCGC] MLPCN Grant: R03 MH090808-01A1 Assay Submitter (PI): Petr Kalab NCGC Assay Overview: The small GTPase Ran regulates transport of macromolecules between the nucleus and the cytoplasm (nuclear transport) and has important functions in mitotic spindle assembly, nuclear envelope (NE) formation and nuclear pore complex (NPC) assembly. RanGTP gradient is thought to promote spindle assembly by providing a spatial clue to microtubule nucleation and Aurora A activation. Because the localized release and binding of importin alpha cargos relays this spatial clue to SAFs, inhibitors of the Rango - importin beta complex can then be used in further understanding their role in cell cycle specifically in mitosis progression. […] The assay used a fluorescence resonance energy transfer (FRET) Rango biosensor that contains the IBB of human snurportin 1 flanked by yellow fluorescent protein (EYFP) at the amino terminus and cerulean CFP10 at the carboxy terminus. […] FRET readings were obtained at two time points. FRET reading prior to importin beta addition (pre-read) were used flag potential compound interference; FRET reading after importin beta addition (post-read) were used to identify inhibitors. […]
Also: % of control where 0% means no effect; nearly all actives have a fitted effect of over 45% in size.

SMILES | activity change, negative = inhibition
O=c1ccc2ccc(OCc3ccccc3)cc2o1 | inactive: -11.3%
